Laboratory results published in PubChem BioAssay AID188 (DTP/NCI, 2004).
Values are animals surviving of animals treated; these mice carried no tumour. Survivors were counted at the toxicity check, usually on the fifth day, unless a day is given; later deaths do not show. Schedules are NCI's codes, taken here to give the interval after Q, in days (D) or hours (H), and the number of doses after X.

Tested on: CD2F1 mice, nontumored, toxicity/survival
Test: NCI In Vivo Anticancer Drug Screen. Data for tumor model Nontumored Animals (Toxicity Test) in CD2F1 (CDF1) mice

Measured: survivor count

COc1cccc2c1C(=O)c1c(O)c3c(c(O)c1C2=O)C[C@@](O)(/C(C)=N/NC(=O)c1ccccc1)C[C@@H]3OC1CC(N)C(O)C(C)O1 (some centres undefined)
5 of 8: dose: 8.0 mg/kg/injection, schedule: Q01DX009 (oral), vehicle: water | dose: 64.0 mg/kg/injection, schedule: Q01DX001 (oral), vehicle: water | dose: 64.0 mg/kg/injection, schedule: Q01DX009 (oral), vehicle: water
7 of 8: dose: 16.0 mg/kg/injection, schedule: Q01DX009 (oral), vehicle: water | dose: 128.0 mg/kg/injection, schedule: Q01DX001 (oral), vehicle: water | dose: 256.0 mg/kg/injection, schedule: Q01DX001 (oral), vehicle: water
8 of 8: dose: 0.13 mg/kg/injection, schedule: Q03HX008 (ip), vehicle: water | dose: 0.13 mg/kg/injection, schedule: Q03HX016 (ip), vehicle: water | dose: 0.13 mg/kg/injection, schedule: Q03HX024 (ip), vehicle: water | dose: 0.25 mg/kg/injection, schedule: Q03HX008 (ip), vehicle: water | dose: 0.25 mg/kg/injection, schedule: Q03HX016 (ip), vehicle: water | dose: 0.25 mg/kg/injection, schedule: Q03HX024 (ip), vehicle: water | dose: 0.5 mg/kg/injection, schedule: Q01DX009 (ip), vehicle: water | dose: 0.5 mg/kg/injection, schedule: Q01DX009 (sc), vehicle: water | dose: 0.5 mg/kg/injection, schedule: Q03HX008 (ip), vehicle: water | dose: 0.5 mg/kg/injection, schedule: Q03HX016 (ip), vehicle: water | dose: 0.5 mg/kg/injection, schedule: Q03HX024 (ip), vehicle: water | dose: 1.0 mg/kg/injection, schedule: Q01DX001 (ip), vehicle: water | dose: 1.0 mg/kg/injection, schedule: Q01DX001 (sc), vehicle: water | dose: 1.0 mg/kg/injection, schedule: Q01DX009 (ip), vehicle: other | dose: 1.0 mg/kg/injection, schedule: Q01DX009 (ip), vehicle: water | dose: 1.0 mg/kg/injection, schedule: Q01DX009 (sc), vehicle: water | dose: 1.0 mg/kg/injection, schedule: Q03HX008 (ip), vehicle: water | dose: 1.0 mg/kg/injection, schedule: Q03HX016 (ip), vehicle: water | dose: 1.0 mg/kg/injection, schedule: Q03HX024 (ip), vehicle: water | dose: 1.0 mg/kg/injection, schedule: Q04DX003 (ip), vehicle: water | dose: 1.0 mg/kg/injection, schedule: Q08DX002 (ip), vehicle: water | dose: 2.0 mg/kg/injection, schedule: Q01DX001 (ip), vehicle: water | dose: 2.0 mg/kg/injection, schedule: Q01DX001 (sc), vehicle: water | dose: 2.0 mg/kg/injection, schedule: Q01DX009 (ip), vehicle: other | dose: 2.0 mg/kg/injection, schedule: Q01DX009 (ip), vehicle: water | dose: 2.0 mg/kg/injection, schedule: Q01DX009 (sc), vehicle: water | dose: 2.0 mg/kg/injection, schedule: Q03HX008 (ip), vehicle: water | dose: 2.0 mg/kg/injection, schedule: Q03HX016 (ip), vehicle: water | dose: 2.0 mg/kg/injection, schedule: Q03HX024 (ip), vehicle: water | dose: 2.0 mg/kg/injection, schedule: Q04DX003 (ip), vehicle: water | dose: 2.0 mg/kg/injection, schedule: Q08DX002 (ip), vehicle: water | dose: 4.0 mg/kg/injection, schedule: Q01DX001 (ip), vehicle: water | dose: 4.0 mg/kg/injection, schedule: Q01DX001 (sc), vehicle: water | dose: 4.0 mg/kg/injection, schedule: Q01DX009 (ip), vehicle: other | dose: 4.0 mg/kg/injection, schedule: Q01DX009 (ip), vehicle: water | dose: 4.0 mg/kg/injection, schedule: Q01DX009 (oral), vehicle: water | dose: 4.0 mg/kg/injection, schedule: Q01DX009 (sc), vehicle: water | dose: 4.0 mg/kg/injection, schedule: Q03HX008 (ip), vehicle: water | dose: 4.0 mg/kg/injection, schedule: Q03HX016 (ip), vehicle: water | dose: 4.0 mg/kg/injection, schedule: Q03HX024 (ip), vehicle: water | dose: 4.0 mg/kg/injection, schedule: Q04DX003 (ip), vehicle: water | dose: 4.0 mg/kg/injection, schedule: Q08DX002 (ip), vehicle: water | dose: 8.0 mg/kg/injection, schedule: Q01DX001 (ip), vehicle: water | dose: 8.0 mg/kg/injection, schedule: Q01DX001 (sc), vehicle: water | dose: 8.0 mg/kg/injection, schedule: Q01DX009 (ip), vehicle: other | dose: 8.0 mg/kg/injection, schedule: Q01DX009 (ip), vehicle: water | dose: 8.0 mg/kg/injection, schedule: Q01DX009 (sc), vehicle: water | dose: 8.0 mg/kg/injection, schedule: Q04DX003 (ip), vehicle: water | dose: 8.0 mg/kg/injection, schedule: Q08DX002 (ip), vehicle: water | dose: 16.0 mg/kg/injection, schedule: Q01DX001 (ip), vehicle: water | dose: 16.0 mg/kg/injection, schedule: Q01DX001 (oral), vehicle: water | dose: 16.0 mg/kg/injection, schedule: Q01DX001 (sc), vehicle: water | dose: 16.0 mg/kg/injection, schedule: Q01DX009 (ip), vehicle: other | dose: 16.0 mg/kg/injection, schedule: Q01DX009 (ip), vehicle: water | dose: 16.0 mg/kg/injection, schedule: Q01DX009 (sc), vehicle: water | dose: 16.0 mg/kg/injection, schedule: Q04DX003 (ip), vehicle: water | dose: 16.0 mg/kg/injection, schedule: Q08DX002 (ip), vehicle: water | dose: 32.0 mg/kg/injection, schedule: Q01DX001 (ip), vehicle: water | dose: 32.0 mg/kg/injection, schedule: Q01DX001 (oral), vehicle: water | dose: 32.0 mg/kg/injection, schedule: Q01DX001 (sc), vehicle: water | dose: 32.0 mg/kg/injection, schedule: Q01DX009 (oral), vehicle: water | dose: 32.0 mg/kg/injection, schedule: Q04DX003 (ip), vehicle: water | dose: 32.0 mg/kg/injection, schedule: Q08DX002 (ip), vehicle: water
